This is one part of the list.

The test has as its target Genome polyprotein (Poliovirus type 1 (strain Mahoney)) (UniProt P03300). As to the kind of experiment: inhibitors of poliovirus polymerase RNA elongation – biochemical, fluorescence polarization, total intensity, primary screen (AID 588519). Further: compound at 16.7 µg/mL. Conditions: measured here: FP z-score, stronger effect = lower value. In general terms: In fluorescence polarisation assays a small probe gives low polarisation when free and higher when bound to something large.
For `CN(CCCl)CCCl`, the z-score turned out to be 0.6.

Source of the values: PubChem BioAssay AID588519 (ICCB-Longwood Screening Facility, Harvard Medical School, 2011).
